For part of these data: Weaker means in comparison with the reference protein, sequence or condition of that experiment. Where a protein sequence is shown, tags need not be part of it. Construct, isoform or probe ends are uncertain for at least one entry. For part of these data: At least one verdict was read from the data and is not stated in words by the source. For part of these data: The direction of at least one scale is not stated here.

Data on six sequences can be found in PMC4375503, “Structural Insights into the Autoregulation and Cooperativity of the Human Transcription Factor Ets-2*”.

Holding throughout (test): EMSA
Data set [1] deals with T1, Ets-2 360-464 (core Ets domain) (Homo sapiens) (UniProt P15036).
T1 sequence (looked up): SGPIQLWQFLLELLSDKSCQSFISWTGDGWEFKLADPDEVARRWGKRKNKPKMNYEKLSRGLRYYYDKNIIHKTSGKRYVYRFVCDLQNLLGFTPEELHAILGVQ
Particulars: EMSA: 50 mM Tris-HCl pH 7.5, 25 mM NaCl, 50 mM L-arginine-HCl, 0.5 mM EDTA, 0.1% Tween 20, 2 mM DTT, 5% glycerol, room temperature 15 min, recombinant protein, residues 360-464, protein details: His tag removed by TEV, label: 5'-32P on strand 1. On the technique in general: In EMSA bound probe runs differently from free probe, usually more slowly.

Data set [2] deals with T2, Ets-2 325-464 (core Ets and autoinhibition domains) (Homo sapiens) (UniProt P15036).
T2 sequence (looked up): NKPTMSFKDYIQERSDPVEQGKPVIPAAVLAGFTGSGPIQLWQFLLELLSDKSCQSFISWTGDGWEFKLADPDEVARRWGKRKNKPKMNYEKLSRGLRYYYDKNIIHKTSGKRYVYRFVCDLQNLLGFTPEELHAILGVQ
As to conditions: EMSA: 50 mM Tris-HCl pH 7.5, 25 mM NaCl, 50 mM L-arginine-HCl, 0.5 mM EDTA, 0.1% Tween 20, 2 mM DTT, 5% glycerol, room temperature 15 min, recombinant protein, residues 325-464, protein details: His tag removed by TEV, label: 5'-32P on strand 1.

For data set [3], the target named is T3, Ets-2 308-469 (core, autoinhibition and serine-rich) (Homo sapiens) (UniProt P15036).
T3 sequence (looked up): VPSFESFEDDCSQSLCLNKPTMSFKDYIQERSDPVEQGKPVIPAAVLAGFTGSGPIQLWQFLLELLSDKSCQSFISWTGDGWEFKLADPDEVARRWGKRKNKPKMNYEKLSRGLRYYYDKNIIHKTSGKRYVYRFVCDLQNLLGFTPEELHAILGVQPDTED
Particulars: serine-rich region present; EMSA: 50 mM Tris-HCl pH 7.5, 25 mM NaCl, 50 mM L-arginine-HCl, 0.5 mM EDTA, 0.1% Tween 20, 2 mM DTT, 5% glycerol, room temperature 15 min; recombinant protein; residues 308-469; protein details: His tag removed by TEV; label: 5'-32P on strand 1.

Data set [4] has as its target T4, Ets-1 medium (equivalent of Ets-2 325-464) (Mus musculus) (UniProt P27577).
T4 sequence (looked up, limits assumed): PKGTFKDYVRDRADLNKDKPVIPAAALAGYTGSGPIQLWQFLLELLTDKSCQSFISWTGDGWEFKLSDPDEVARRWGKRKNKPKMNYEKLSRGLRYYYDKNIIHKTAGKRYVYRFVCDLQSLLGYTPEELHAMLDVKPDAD
As to conditions: EMSA: 50 mM Tris-HCl pH 7.5, 25 mM NaCl, 50 mM L-arginine-HCl, 0.5 mM EDTA, 0.1% Tween 20, 2 mM DTT, 5% glycerol, room temperature 15 min; recombinant protein; protein details: His tag removed by TEV; label: 5'-32P on strand 1.

The mark [5] stands for this setting: single and super-shifted species, lower apparent affinity than single site.
The mark [6] stands for this setting: almost identical to 7-bp, data not shown.

As to “AGCGGAAGTGACACTTCCGGA (double strand) [palindrome 7-bp spacer]”, in data set [1] (setting [5]), the binding result is listed as “binds more weakly”.
“AGCGGAAGTGATCACTTCCGGA (double strand) [palindrome 8-bp spacer]”: the binding result in data set [1] (setting [6]) and in data set [2] (setting [6]) was “binds more weakly” each time.
With “AGCGGAAGTGACTTCCGGA (double strand) [palindrome 5-bp spacer]”, the binding result in data set [1] (no super-shifted band, lower apparent affinity than single site) is “binds more weakly”; in data set [2] (non-cooperative, 1:1 only, no super-shift, lower apparent affinity than single site), “binds more weakly”.
As for “AGCGGAAGTACTTCCGGA (double strand) [palindrome 4-bp spacer]”, the binding result in data set [1] (lower apparent affinity than single site) is listed as “binds more weakly”; in data set [2] (exclusively cooperative, presumed 2:1, lower apparent affinity than single site), “binds more weakly”.
For the sequence “AGCGGAAGTGCACTTCCGGA (double strand) [palindrome 6-bp spacer]”, the binding result in data set [1] (setting [5]) is reported as “binds more weakly”; in data set [2] (1:1 and 2:1, some cooperativity, lower apparent affinity than single site), “binds more weakly”.
For the sequence “ATCTCACCGGAAGTGTAGCA (double strand) [single-site EMSA probe]”, the binding signal (fold inhibition) in data set [3] was 10. For the same sequence, the binding signal (fold reduction in affinity vs P4) in data set [4] was found to be 5. Besides, the binding signal (fold Kd vs P1) in data set [2] (no noticeable difference from construct without N-terminal module) was found to be 1.
